PubChem BioAssay AID652272 – Drosophila RNAi Screening Center, 2013
In all, the deposit lists about 21,000 reagents; below is an unselected part of those with a known target gene and a result. Of all reagents, 503 (2.4%) were called active. 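Raw plate light values, not normalised; calls rest on replicate z-scores that were not deposited; hits include reporter decreases as well as increases.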 Reagents against one gene are numbered here. Reagent sequences are not shown. Not stated in the record: the amount of reagent, the time to read-out.

- Assay: 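Genes whose knock-down decreases or increases Hedgehog reporter output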 (primary screen)
- System: Drosophila clone 8 (Cl8) cells
- Reagents: long dsRNA against Drosophila genes
- Measurement: 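Firefly light from a Hedgehog-responsive ptc promoter reporter and Renilla reference light, both read on a plate reader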
- Direction: firefly Hh reporter signal: higher = more ptc reporter light; Renilla reference signal: higher = more Renilla control light
- Rule for the call: 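Called a hit if the two-replicate mean z-score lies below -2 or above +3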
- Meaning of the calls: active = hit: reporter lowered or raised; inactive = not a hit

With knock-down of CG6688, the record shows firefly Hh reporter signal, replicate 1 = 5.01e5; firefly Hh reporter signal, replicate 2 = 80993; Renilla reference signal, replicate 1 = 28871; Renilla reference signal, replicate 2 = 2713; inactive.
With knock-down of CG12998, the record shows firefly Hh reporter signal, replicate 1 = 88342; firefly Hh reporter signal, replicate 2 = 2.14e5; Renilla reference signal, replicate 1 = 1505; Renilla reference signal, replicate 2 = 8360; inactive.
mahj (mahjong) gave firefly Hh reporter signal, replicate 1 = 91105; firefly Hh reporter signal, replicate 2 = 52267; Renilla reference signal, replicate 1 = 2875; Renilla reference signal, replicate 2 = 1690; inactive.
CG32461 gave firefly Hh reporter signal, replicate 1 = 2.19e5; Renilla reference signal, replicate 1 = 4572; inactive.
Depletion of CG30075 resulted in: firefly Hh reporter signal, replicate 1 = 93026; firefly Hh reporter signal, replicate 2 = 1.81e5; Renilla reference signal, replicate 1 = 2768; Renilla reference signal, replicate 2 = 8208; inactive.
Against Ugt35E1 (UDP-glycosyltransferase family 35 member E1) the deposit lists firefly Hh reporter signal, replicate 1 = 1.09e5; firefly Hh reporter signal, replicate 2 = 1.63e5; Renilla reference signal, replicate 1 = 2812; Renilla reference signal, replicate 2 = 4440; inactive.
Trc8 (TRC8 ring finger protein) showed firefly Hh reporter signal, replicate 1 = 96874; firefly Hh reporter signal, replicate 2 = 99738; Renilla reference signal, replicate 1 = 2658; Renilla reference signal, replicate 2 = 2726; inactive.

Copied from above (2 entries):
CG32461 → firefly Hh reporter signal, replicate 1 = 2.19e5; Renilla reference signal, replicate 1 = 4572; activity call = inactive
CG30075 → firefly Hh reporter signal, replicate 1 = 93026; firefly Hh reporter signal, replicate 2 = 1.81e5; Renilla reference signal, replicate 1 = 2768; Renilla reference signal, replicate 2 = 8208; activity call = inactive

Next entries follow.
CG5776 gave firefly Hh reporter signal, replicate 1 = 71019; firefly Hh reporter signal, replicate 2 = 73561; Renilla reference signal, replicate 1 = 3344; Renilla reference signal, replicate 2 = 2816; inactive.
For Ccn #1 the deposit lists firefly Hh reporter signal, replicate 1 = 2.91e5; Renilla reference signal, replicate 1 = 6704; inactive.
Silencing of Ccn #2 came out at: firefly Hh reporter signal, replicate 1 = 1.28e5; Renilla reference signal, replicate 1 = 5376; inactive.
Knock-down of Ccn #3 resulted in: firefly Hh reporter signal, replicate 1 = 1.15e5; firefly Hh reporter signal, replicate 2 = 76240; Renilla reference signal, replicate 1 = 5261; Renilla reference signal, replicate 2 = 3360; inactive.
Ccn #4 gave firefly Hh reporter signal, replicate 1 = 75703; Renilla reference signal, replicate 1 = 5965; Renilla reference signal, replicate 2 = 2541; inactive.
Against CG5568, the values are firefly Hh reporter signal, replicate 1 = 1.45e5; firefly Hh reporter signal, replicate 2 = 7.48e5; firefly Hh reporter signal, replicate 3 = 1.20e5; Renilla reference signal, replicate 1 = 6632; Renilla reference signal, replicate 2 = 44322; inactive.
For CG31058 (retired record) the deposit lists firefly Hh reporter signal, replicate 1 = 71171; firefly Hh reporter signal, replicate 2 = 56406; Renilla reference signal, replicate 1 = 2224; Renilla reference signal, replicate 2 = 1808; inactive.
CG31516 gave firefly Hh reporter signal, replicate 1 = 2.13e5; Renilla reference signal, replicate 1 = 4796; inactive.
CG15599 scored firefly Hh reporter signal, replicate 1 = 49349; firefly Hh reporter signal, replicate 2 = 1.65e5; Renilla reference signal, replicate 1 = 1648; Renilla reference signal, replicate 2 = 6906; inactive.
For CG10013, the values are firefly Hh reporter signal, replicate 1 = 1.23e5; firefly Hh reporter signal, replicate 2 = 72593; Renilla reference signal, replicate 1 = 4864; Renilla reference signal, replicate 2 = 2768; inactive.
yellow-e2 showed firefly Hh reporter signal, replicate 1 = 1.13e5; firefly Hh reporter signal, replicate 2 = 89168; Renilla reference signal, replicate 1 = 3858; Renilla reference signal, replicate 2 = 1706; inactive.
Silencing of CG6230 resulted in: firefly Hh reporter signal, replicate 1 = 66716; firefly Hh reporter signal, replicate 2 = 45763; Renilla reference signal, replicate 1 = 3056; Renilla reference signal, replicate 2 = 2109; inactive.
CG2604 scored firefly Hh reporter signal, replicate 1 = 1.01e5; firefly Hh reporter signal, replicate 2 = 1.18e5; Renilla reference signal, replicate 1 = 4029; Renilla reference signal, replicate 2 = 3509; inactive.
After knock-down of CR31822 (pseudo), the screen gave firefly Hh reporter signal, replicate 1 = 1.08e5; firefly Hh reporter signal, replicate 2 = 1.99e5; Renilla reference signal, replicate 1 = 3179; Renilla reference signal, replicate 2 = 9537; inactive.
